Measurements reported in patent publication EP4620963A1, “PEPTIDE HAVING SKIN-WHITENING ACTIVITY AND USES THEREOF” (Caregen Co., Ltd., priority 2022, dated 2025).
At least one peptide structure holds a part that was inferred or is arguable (an end, a ring closure or a residue). Peptide text beside a SMILES is read from it.

Columns and labels:
Type in all cases: cell-based, Human
HaCaT cells [1] = assay: Incorporation of melanosomes by phagocytosis in keratinocytes (melanin content, absorbance at 490 nm); settings: peptide 50 µM, 100 µM, 200 µM for 24 hours, then melanosomes (10 µg/mL) from HEM-DP for 48 hours; FIG. 1
[2] = test system: keratinocyte growth factor receptor (KGFR); assay: Expression of KGFR gene related to melanosome phagocytosis (PCR, gel band density); settings: HaCaT cells; peptide 10 µM, 50 µM, 100 µM, 200 µM for 6 hours; compared to the control group; FIGS. 4a and 4b
[3] = test system: Toll-like receptors 3 (TLR3); assay: Expression of TLR3 gene related to melanosome phagocytosis (PCR, gel band density); settings: HaCaT cells; peptide 10 µM, 50 µM, 100 µM, 200 µM, after 30 minutes 30 µg/mL poly(I:C), 24 hours; compared to the control group; FIGS. 3a and 3b
[4] = test system: protease activated receptor 2 (PAR2); assay: Expression of PAR2 gene related to melanosome phagocytosis (PCR, gel band density); settings: HaCaT cells; peptide 10 uM, 50 µM, 100 µM for 24 hours, then 4 units of trypsin for 16 hours; concentration-dependent; FIGS. 2a and 2b
HaCaT cells [5] = assay: Melanosome degradation analysis (amount of melanin, absorbance at 490 nm); settings: melanosomes 10 µg/mL for 48 hours, then melanosomes plus peptide 10 µM, 50 µM, 100 µM, 200 µM for 72 hours

Q: Which “incorporation of melanosomes into HaCaT cells (melanin content)” value (HaCaT cells [1]) does the source give for `CC(C)C[C@H](NC(=O)[C@@H](NC(=O)[C@@H](N)CCCNC(=N)N)[C@@H](C)O)C(=O)N[C@@H](CCC(=O)O)C(=O)O` [SEQ ID NO: 1, RTLE (Arg-Thr-Leu-Glu)] (H-RTLE-OH) here?
A: The value was “inhibited”.

Q: What about the “mRNA level of the gene of KGFR” value [2] of the same compound?
A: The value was “reduced the mRNA level of the gene of KGFR”.

Q: And the “mRNA level of the gene of TLR3” value [3]?
A: Its value is “reduced the mRNA level of the gene of TLR3”.

Q: What about the “mRNA level of the PAR2 gene” value [4] of the same compound?
A: The value was “reduced the mRNA level of the PAR2 gene”.

Q: What about the “degradation of melanosomes in HaCaT cells (change in melanosome content)” value (HaCaT cells [5]) of the same compound?
A: The value was “induces the degradation of melanosomes”.
